No constants are given. Whether binding was seen depends on the method and setting. Binding seen in cells or lysates may run through a third protein. Some results given as binding are weak or reduced against the parent protein; the word gives no strength.
How the values were obtained:
[1] = target: ACLY (ATP citrate lyase), endogenous, in HL-60 AML cells (UniProt P53396); test: co-immunoprecipitation with anti-LYN antibody from HL-60 lysate, western blot for ACLY
[2] = target: ACLY (ATP citrate lyase), endogenous, in HL-60 AML cells (UniProt P53396); test: heading of the FIG. 3 legend (co-immunoprecipitation and in vitro kinase assays)
[3] = target: ACLY (ATP citrate lyase), endogenous, in HL-60 AML cells (UniProt P53396); test: summary sentence in Example 9, referring to the earlier co-immunoprecipitation and kinase assays

Sequences of proteins named here, by UniProt entry; tags and fusion partners are left off. Residues count along the entry.
UniProt P53396: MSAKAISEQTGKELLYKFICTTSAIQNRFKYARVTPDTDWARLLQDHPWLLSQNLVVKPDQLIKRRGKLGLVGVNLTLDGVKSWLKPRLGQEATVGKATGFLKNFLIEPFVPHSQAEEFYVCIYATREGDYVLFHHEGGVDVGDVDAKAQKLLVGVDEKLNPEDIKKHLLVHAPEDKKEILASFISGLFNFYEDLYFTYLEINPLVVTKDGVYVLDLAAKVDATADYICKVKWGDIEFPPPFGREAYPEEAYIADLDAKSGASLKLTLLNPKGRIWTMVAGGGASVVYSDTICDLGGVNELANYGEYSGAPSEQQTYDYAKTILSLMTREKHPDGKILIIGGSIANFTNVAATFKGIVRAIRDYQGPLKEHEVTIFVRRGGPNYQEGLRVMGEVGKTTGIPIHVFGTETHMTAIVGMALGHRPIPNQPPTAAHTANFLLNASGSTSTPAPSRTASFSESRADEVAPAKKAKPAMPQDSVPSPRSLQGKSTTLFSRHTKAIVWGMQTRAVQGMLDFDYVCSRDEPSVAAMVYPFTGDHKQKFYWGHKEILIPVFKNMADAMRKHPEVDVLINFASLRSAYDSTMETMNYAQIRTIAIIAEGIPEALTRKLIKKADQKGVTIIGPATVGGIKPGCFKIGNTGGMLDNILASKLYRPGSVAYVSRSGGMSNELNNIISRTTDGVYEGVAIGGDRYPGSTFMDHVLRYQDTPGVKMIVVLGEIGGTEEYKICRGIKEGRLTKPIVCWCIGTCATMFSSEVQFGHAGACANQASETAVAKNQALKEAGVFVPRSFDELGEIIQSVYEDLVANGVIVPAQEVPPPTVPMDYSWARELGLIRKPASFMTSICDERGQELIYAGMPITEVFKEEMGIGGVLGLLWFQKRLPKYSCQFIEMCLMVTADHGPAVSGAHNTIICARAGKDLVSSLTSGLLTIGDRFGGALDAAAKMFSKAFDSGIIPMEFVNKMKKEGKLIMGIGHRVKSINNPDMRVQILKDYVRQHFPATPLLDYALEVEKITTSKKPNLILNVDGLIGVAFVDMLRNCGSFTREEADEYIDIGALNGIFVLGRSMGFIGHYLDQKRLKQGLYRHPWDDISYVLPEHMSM
UniProt P07948, residues 2-512: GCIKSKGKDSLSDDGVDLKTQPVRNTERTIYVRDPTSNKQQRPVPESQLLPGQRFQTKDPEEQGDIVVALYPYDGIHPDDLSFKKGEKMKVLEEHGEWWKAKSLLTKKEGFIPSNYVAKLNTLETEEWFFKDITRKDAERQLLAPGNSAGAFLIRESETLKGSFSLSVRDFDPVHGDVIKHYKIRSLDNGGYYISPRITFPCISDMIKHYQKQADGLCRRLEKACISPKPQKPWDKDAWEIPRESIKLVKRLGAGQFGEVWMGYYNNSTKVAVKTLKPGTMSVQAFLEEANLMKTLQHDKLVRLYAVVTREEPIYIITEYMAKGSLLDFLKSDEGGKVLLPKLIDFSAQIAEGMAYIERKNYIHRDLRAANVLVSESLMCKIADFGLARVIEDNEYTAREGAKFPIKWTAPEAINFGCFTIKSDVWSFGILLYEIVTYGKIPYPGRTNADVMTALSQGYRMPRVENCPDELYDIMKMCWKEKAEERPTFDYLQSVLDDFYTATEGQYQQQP

Measured: binding

Lyn tyrosine kinase, endogenous, immunoprecipitated from HL-60 AML cells (from UniProt P07948 2-512) (enzyme)
binds: all assays above

Reference: patent US20220218659A1, “PI3K/LYN-ACLY Signaling Inhibition” (Institute For Cancer Research d/b/a The Research Institute …, priority 2019, published 2022)
